{"source": "PubChem BioAssay AID1259308 – NCATS | 2017", "test": "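Knock-downs that increase output of a recombinant reporter protein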 (primary screen)", "cells": "human HEK293 embryonic kidney cells stably expressing firefly luciferase (HEK-CMV-Luc2-Hygro)", "reagents": "single siRNA against human genes, 0.8 pmol siRNA per well", "duration": "72 h", "detection": "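Luciferase light (ONE-Glo) measured on one replicate plate set and viability (CellTiter-Glo) on the other, scaled to a negative control siRNA, with robust z-scores and luciferase per cell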", "direction": "total luciferase, z-score: higher = more reporter protein produced", "hit rule": "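Active when the median/MAD z-score for overall luciferase is greater than 3; a gene was taken forward for validation with new siRNAs if at least two of its three siRNAs passed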", "meaning of the calls": "active = raised luciferase; inactive = no rise", "note": "This is an unselected part of about 59,000 deposited reagents. Of all reagents, about 1,510 (2.6%) are marked active. 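Calls use total luciferase alone and ignore viability, so some active siRNAs may act by altering cell number.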 Further read-outs or replicates are left out here. Reagent sequences are not shown."}
{"target":"MTNAP1 (mitochondrial nucleoid associated protein 1)","PubChem SID":"SID160742781","total luciferase, z-score":1.82,"Outcome":"inactive"}
{"target":"MTNAP1 (mitochondrial nucleoid associated protein 1)","PubChem SID":"SID160742782","total luciferase, z-score":1.17,"Outcome":"inactive"}
{"target":"MTNAP1 (mitochondrial nucleoid associated protein 1)","PubChem SID":"SID160742783","total luciferase, z-score":1.88,"Outcome":"inactive"}
{"target":"MYL6 (myosin light chain 6)","PubChem SID":"SID160731264","total luciferase, z-score":-0.0887,"Outcome":"inactive"}
{"target":"MYL6 (myosin light chain 6)","PubChem SID":"SID160777692","total luciferase, z-score":-1.14,"Outcome":"inactive"}
{"target":"MYL6 (myosin light chain 6)","PubChem SID":"SID160777693","total luciferase, z-score":1.52,"Outcome":"inactive"}
{"target":"COL8A1 (collagen type VIII alpha 1 chain)","PubChem SID":"SID160746186","total luciferase, z-score":-1.7,"Outcome":"inactive"}
{"target":"COL8A1 (collagen type VIII alpha 1 chain)","PubChem SID":"SID160746197","total luciferase, z-score":1.12,"Outcome":"inactive"}
{"target":"COL8A1 (collagen type VIII alpha 1 chain)","PubChem SID":"SID160746208","total luciferase, z-score":-1.25,"Outcome":"inactive"}
{"target":"HEPACAM2 (HEPACAM family member 2)","PubChem SID":"SID160762045","total luciferase, z-score":-0.319,"Outcome":"inactive"}
{"target":"HEPACAM2 (HEPACAM family member 2)","PubChem SID":"SID160762046","total luciferase, z-score":0.757,"Outcome":"inactive"}
{"target":"HEPACAM2 (HEPACAM family member 2)","PubChem SID":"SID160762047","total luciferase, z-score":1.08,"Outcome":"inactive"}
{"target":"USH2A (usherin)","PubChem SID":"SID160718682","total luciferase, z-score":-1.93,"Outcome":"inactive"}
{"target":"USH2A (usherin)","PubChem SID":"SID160718683","total luciferase, z-score":-0.677,"Outcome":"inactive"}
{"target":"USH2A (usherin)","PubChem SID":"SID160718684","total luciferase, z-score":0.28,"Outcome":"inactive"}
{"target":"POLDIP3 (DNA polymerase delta interacting protein 3)","PubChem SID":"SID160752013","total luciferase, z-score":-0.76,"Outcome":"inactive"}
{"target":"POLDIP3 (DNA polymerase delta interacting protein 3)","PubChem SID":"SID160752014","total luciferase, z-score":-0.663,"Outcome":"inactive"}
{"target":"POLDIP3 (DNA polymerase delta interacting protein 3)","PubChem SID":"SID160752015","total luciferase, z-score":2.01,"Outcome":"inactive"}
{"target":"TLCD3A (TLC domain containing 3A)","PubChem SID":"SID160749605","total luciferase, z-score":0.0358,"Outcome":"inactive"}
{"target":"TLCD3A (TLC domain containing 3A)","PubChem SID":"SID160749606","total luciferase, z-score":0.777,"Outcome":"inactive"}
{"target":"TLCD3A (TLC domain containing 3A)","PubChem SID":"SID160749607","total luciferase, z-score":0.0146,"Outcome":"inactive"}
{"target":"ZFP14 (ZFP14 zinc finger protein)","PubChem SID":"SID160746552","total luciferase, z-score":-0.779,"Outcome":"inactive"}
{"target":"ZFP14 (ZFP14 zinc finger protein)","PubChem SID":"SID160746553","total luciferase, z-score":-0.663,"Outcome":"inactive"}
{"target":"ZFP14 (ZFP14 zinc finger protein)","PubChem SID":"SID160746554","total luciferase, z-score":0.0896,"Outcome":"inactive"}
{"target":"TTN (titin)","PubChem SID":"SID160718433","total luciferase, z-score":-0.883,"Outcome":"inactive"}
{"target":"TTN (titin)","PubChem SID":"SID160718434","total luciferase, z-score":0.0172,"Outcome":"inactive"}
{"target":"TTN (titin)","PubChem SID":"SID160718435","total luciferase, z-score":0.249,"Outcome":"inactive"}
{"target":"SFRP4 (secreted frizzled related protein 4)","PubChem SID":"SID160716594","total luciferase, z-score":2.01,"Outcome":"inactive"}
{"target":"SFRP4 (secreted frizzled related protein 4)","PubChem SID":"SID160716596","total luciferase, z-score":0.509,"Outcome":"inactive"}
{"target":"SFRP4 (secreted frizzled related protein 4)","PubChem SID":"SID160716597","total luciferase, z-score":1.18,"Outcome":"inactive"}
{"target":"ACTL7A (actin like 7A)","PubChem SID":"SID160729412","total luciferase, z-score":0.0939,"Outcome":"inactive"}
{"target":"ACTL7A (actin like 7A)","PubChem SID":"SID160729414","total luciferase, z-score":0.262,"Outcome":"inactive"}
{"target":"ACTL7A (actin like 7A)","PubChem SID":"SID160729415","total luciferase, z-score":-0.588,"Outcome":"inactive"}
